The list shows only some results of the screen, not a fair sample: it covers a few groups of compounds. Not every dose and run of a compound is shown. T/C gives the treated animals as a percentage of the vehicle group. Where survival is the endpoint, the PubChem record calls one and a half times the control and up active, and a quarter to a half above the control has no call in these data; cut-offs in other NCI protocols can differ. Schedule codes are those of the source, taken here to give the interval after Q, in days (D) or hours (H), and the number of doses after X. Some T/C values are followed by the survivors on the day toxicity was checked, most often the fifth; without a count or a note in brackets, all were alive then.
Test system: CD2F1 mice, L1210 leukemia ip, survival T/C
Experiment: NCI In Vivo Anticancer Drug Screen. Data for tumor model L1210 Leukemia (intraperitoneal) in CD2F1 (CDF1) mice
Conditions: T/C endpoint: mean survival time, schedule: Q01DX009 (ip), higher T/C = longer survival
Procedure, shortened: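 Tumor-bearing mice (transplanted tumor) were split into treated and vehicle control groups, and the measured endpoint of each treated group was divided by that of its vehicle controls.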

Structure (SMILES)	T/C (dose: 3.12 mg/kg/injection, vehicle: Klucel (hydroxypropylcellulose) (HPC))	T/C (dose: 6.25 mg/kg/injection, vehicle: Klucel (hydroxypropylcellulose) (HPC))	T/C (dose: 12.5 mg/kg/injection, vehicle: Klucel (hydroxypropylcellulose) (HPC))	T/C (dose: 25.0 mg/kg/injection, vehicle: Klucel (hydroxypropylcellulose) (HPC))	T/C (dose: 50.0 mg/kg/injection, vehicle: Klucel (hydroxypropylcellulose) (HPC))	T/C (dose: 100.0 mg/kg/injection, vehicle: Klucel (hydroxypropylcellulose) (HPC))	T/C (dose: 200.0 mg/kg/injection, vehicle: Klucel (hydroxypropylcellulose) (HPC))	T/C (dose: 50.0 mg/kg/injection, vehicle: saline with Tween-80)	T/C (dose: 100.0 mg/kg/injection, vehicle: saline with Tween-80)
CCCNC(=O)c1ccc(N(CCCl)CCCl)cc1	97 % of control	105 % of control	103 % of control	107 % of control	102 % of control	101 % of control	102 % of control [4 of 6 alive]	–	–
CC(Cl)CSc1ccccc1 (centres undefined)	–	–	–	–	–	–	–	106 % of control	118 % of control
